In article PMC8041783 one finds binding data, which are given here for one substance.

By UniProt entry, the sequences of proteins in these tests, tags left out.
UniProt P26465: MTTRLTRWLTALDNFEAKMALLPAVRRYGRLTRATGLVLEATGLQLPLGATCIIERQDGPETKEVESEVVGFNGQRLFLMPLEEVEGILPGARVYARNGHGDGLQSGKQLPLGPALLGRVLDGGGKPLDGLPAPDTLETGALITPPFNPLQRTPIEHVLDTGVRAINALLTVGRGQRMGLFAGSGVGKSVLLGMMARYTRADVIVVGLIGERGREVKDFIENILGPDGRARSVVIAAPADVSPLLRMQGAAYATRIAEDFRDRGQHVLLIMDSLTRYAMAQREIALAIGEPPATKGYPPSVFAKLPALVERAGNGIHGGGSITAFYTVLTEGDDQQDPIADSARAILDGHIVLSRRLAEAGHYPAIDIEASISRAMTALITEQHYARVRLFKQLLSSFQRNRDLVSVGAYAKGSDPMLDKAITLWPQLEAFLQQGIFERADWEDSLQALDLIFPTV
UniProt P0A1I9: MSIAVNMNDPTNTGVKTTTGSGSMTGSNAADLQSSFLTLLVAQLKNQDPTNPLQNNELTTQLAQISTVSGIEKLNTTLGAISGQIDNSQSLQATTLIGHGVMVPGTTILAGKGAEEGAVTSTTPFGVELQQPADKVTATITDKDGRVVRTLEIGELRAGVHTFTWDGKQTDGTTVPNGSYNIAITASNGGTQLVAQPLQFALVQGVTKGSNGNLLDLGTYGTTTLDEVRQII

No constants are given. Whether binding was seen depends on the method and setting. In cells and extracts the contact can be indirect. Some entries that bind do so weakly or less than the wild type.

The target of this assay is GST-FliI (Salmonella enterica) (UniProt P26465). As to the kind of experiment: pull-down; GST affinity chromatography: lysates of S. enterica SJW1368 expressing GST or GST fusions mixed with lysate of E. coli BL21 (DE3) Star overexpressing His-FlgD; Glutathione Sepharose 4B; wash with PBS; elution with 10 mM reduced glutathione; CBB and anti-FlgD immunoblot.

For His-FlgD (from UniProt P0A1I9 1-232), the binding entry is recorded as “binds”.
